Test results as given in patent US20250283871A1, “COMPOSITIONS AND METHODS FOR MODULATING THE INTERACTION BETWEEN SS18-SSX FUSION ONCOPROTEIN AND NUCLEOSOMES” (Dana-Farber Cancer Institute, Inc., priority 2020, published 2025).

System: BAF complex subunits and histone proteins
Experiment: Mass spectrometry proteomics of purified HA-SS18 WT and HA-SS18-SSX1 complexes (Tables 5A-5E)
Parameters: species or system human
[1] = HA-SS18SSX1_CHR_peptides: protein identified in the HA-SS18-SSX1 purification from solubilized chromatin (CHR), HEK-293T
[2] = HA-SS18SSX1 purification, NE (soluble nuclear extract) fraction, HEK-293T, peptides per identified protein
[3] = HA-SS18WT_CHR_peptides: HA-SS18 WT purification from nuclease-treated solubilized chromatin (CHR), HEK-293T, label = protein identified
[4] = HA-SS18WT_NE_peptides: HA-SS18 WT complexes purified from nuclear extract (NE), HEK-293T, label = protein identified (Gene Symbol)
[5] = HA-SS18SSX1_NE_peptides: protein co-purified with HA-SS18-SSX1 BAF complexes from soluble nuclear extract (NE), HEK-293T cells
[6] = HA-SS18WT_CHR_peptides: protein identified in HA-SS18 WT BAF complex purification from nuclease-treated solubilized chromatin (CHR), HEK-293T
[7] = HA-SS18WT_NE_peptides: proteins co-purified with HA-SS18 WT from nuclear extract (NE), HEK-293T

B1: MYBBP1A (protein, UniProt Q9BQG0 1-1328, looked up)
Myb-binding protein 1A: MESRDPAQPMSPGEATQSGARPADRYGLLKHSREFLDFFWDIAKPEQETRLAATEKLLEYLRGRPKGSEMKYALKRLITGLGVGRETARPCYSLALAQLLQSFEDLPLCSILQQIQEKYDLHQVKKAMLRPALFANLFGVLALFQSGRLVKDQEALMKSVKLLQALAQYQNHLQEQPRKALVDILSEVSKATLQEILPEVLKADLNIILSSPEQLELFLLAQQKVPSKLKKLVGSVNLFSDENVPRLVNVLKMAASSVKKDRKLPAIALDLLRLALKEDKFPRFWKEVVEQGLLKMQFWPASYLCFRLLGAALPLLTKEQLHLVMQGDVIRHYGEHVCTAKLPKQFKFAPEMDDYVGTFLEGCQDDPERQLAVLVAFSSVTNQGLPVTPTFWRVVRFLSPPALQGYVAWLRAMFLQPDLDSLVDFSTNNQKKAQDSSLHMPERAVFRLRKWIIFRLVSIVDSLHLEMEEALTEQVARFCLFHSFFVTKKPTSQIPETKHPFSFPLENQAREAVSSAFFSLLQTLSTQFKQAPGQTQGGQPWTYHLVQFADLLLNHSHNVTTVTPFTAQQRQAWDRMLQTLKELEAHSAEARAAAFQHLLLLVGIHLLKSPAESCDLLGDIQTCIRKSLGEKPRRSRTKTIDPQEPPWVEVLVEILLALLAQPSHLMRQVARSVFGHICSHLTPRALQLILDVLNPETSEDENDRVVVTDDSDERRLKGAEDKSEEGEDNRSSESEEESEGEESEEEERDGDVDQGFREQLMTVLQAGKALGGEDSENEEELGDEAMMALDQSLASLFAEQKLRIQARRDEKNKLQKEKALRRDFQIRVLDLVEVLVTKQPENALVLELLEPLLSIIRRSLRSSSSKQEQDLLHKTARIFTHHLCRARRYCHDLGERAGALHAQVERLVQQAGRQPDSPTALYHFNASLYLLRVLKGNTAEGCVHETQEKQKAGTDPSHMPTGPQAASCLDLNLVTRVYSTALSSFLTKRNSPLTVPMFLSLFSRHPVLCQSLLPILVQHITGPVRPRHQACLLLQKTLSMREVRSCFEDPEWKQLMGQVLAKVTENLRVLGEAQTKAQHQQALSSLELLNVLFRTCKHEKLTLDLTVLLGVLQGQQQSLQQGAHSTGSSRLHDLYWQAMKTLGVQRPKLEKKDAKEIPSATQSPISKKRKKKGFLPETKKRKKRKSEDGTPAEDGTPAATGGSQPPSMGRKKRNRTKAKVPAQANGTPTTKSPAPGAPTRSPSTPAKSPKLQKKNQKPSQVNGAPGSPTEPAGQKQHQKALPKKGVLGKSPLSALARKKARLSLVIRSPSLLQSGAKKKAQVRKAGKP
B1 was tested, and the “Total (total peptides)” value [1] was 19, the “Unique (unique peptides)” value [1] was 17 and the “Total (total peptides)” value [2] was 10. The “Unique (unique peptides)” value [2] was 10, the “Total (peptides)” value [3] was 14 and the “Unique (peptides)” value [3] was 11. The “Total (peptides)” value [4] was 15 and the “Unique (peptides)” value [4] was 15.

B2: HNRNPUL2 (protein, UniProt Q1KMD3 1-747, looked up)
Heterogeneous nuclear …: MEVKRLKVTELRSELQRRGLDSRGLKVDLAQRLQEALDAEMLEDEAGGGGAGPGGACKAEPRPVAASGGGPGGDEEEDEEEEEEDEEALLEDEDEEPPPAQALGQAAQPPPEPPEAAAMEAAAEPDASEKPAEATAGSGGVNGGEEQGLGKREEDEPEERSGDETPGSEVPGDKAAEEQGDDQDSEKSKPAGSDGERRGVKRQRDEKDEHGRAYYEFREEAYHSRSKSPLPPEEEAKDEEEDQTLVNLDTYTSDLHFQVSKDRYGGQPLFSEKFPTLWSGARSTYGVTKGKVCFEAKVTQNLPMKEGCTEVSLLRVGWSVDFSRPQLGEDEFSYGFDGRGLKAENGQFEEFGQTFGENDVIGCFANFETEEVELSFSKNGEDLGVAFWISKDSLADRALLPHVLCKNCVVELNFGQKEEPFFPPPEEFVFIHAVPVEERVRTAVPPKTIEECEVILMVGLPGSGKTQWALKYAKENPEKRYNVLGAETVLNQMRMKGLEEPEMDPKSRDLLVQQASQCLSKLVQIASRTKRNFILDQCNVYNSGQRRKLLLFKTFSRKVVVVVPNEEDWKKRLELRKEVEGDDVPESIMLEMKANFSLPEKCDYMDEVTYGELEKEEAQPIVTKYKEEARKLLPPSEKRTNRRNNRNKRNRQNRSRGQGYVGGQRRGYDNRAYGQQYWGQPGNRGGYRNFYDRYRGDYDRFYGRDYEYNRYRDYYRQYNRDWQSYYYHHPQDRDRYYRNYYGYQGYR
With B2 the “Total (total peptides)” value [1] was 20, the “Unique (unique peptides)” value [1] was 12 and the “Total (peptides)” value [3] was 8. The “Unique (peptides)” value [3] was 7.

B3: MATR3 (protein, UniProt P43243 2-847, looked up)
Matrin-3: SKSFQQSSLSRDSQGHGRDLSAAGIGLLAAATQSLSMPASLGRMNQGTARLASLMNLGMSSSLNQQGAHSALSSASTSSHNLQSIFNIGSRGPLPLSSQHRGDADQASNILASFGLSARDLDELSRYPEDKITPENLPQILLQLKRRRTEEGPTLSYGRDGRSATREPPYRVPRDDWEEKRHFRRDSFDDRGPSLNPVLDYDHGSRSQESGYYDRMDYEDDRLRDGERCRDDSFFGETSHNYHKFDSEYERMGRGPGPLQERSLFEKKRGAPPSSNIEDFHGLLPKGYPHLCSICDLPVHSNKEWSQHINGASHSRRCQLLLEIYPEWNPDNDTGHTMGDPFMLQQSTNPAPGILGPPPPSFHLGGPAVGPRGNLGAGNGNLQGPRHMQKGRVETSRVVHIMDFQRGKNLRYQLLQLVEPFGVISNHLILNKINEAFIEMATTEDAQAAVDYYTTTPALVFGKPVRVHLSQKYKRIKKPEGKPDQKFDQKQELGRVIHLSNLPHSGYSDSAVLKLAEPYGKIKNYILMRMKSQAFIEMETREDAMAMVDHCLKKALWFQGRCVKVDLSEKYKKLVLRIPNRGIDLLKKDKSRKRSYSPDGKESPSDKKSKTDGSQKTESSTEGKEQEEKSGEDGEKDTKDDQTEQEPNMLLESEDELLVDEEEAAALLESGSSVGDETDLANLGDVASDGKKEPSDKAVKKDGSASAAAKKKLKKVDKIEELDQENEAALENGIKNEENTEPGAESSENADDPNKDTSENADGQSDENKDDYTIPDEYRIGPYQPNVPVGIDYVIPKTGFYCKLCSLFYTNEEVAKNTHCSSLPHYQKLKKFLNKLAEERRQKKET
For B3, the “Total (total peptides)” value [1] was 20, the “Unique (unique peptides)” value [1] was 13 and the “Total (total peptides)” value [2] was 13. For the same molecule, the “Unique (unique peptides)” value [2] was 9, the “Total (peptides)” value [3] was 16 and the “Unique (peptides)” value [3] was 10. For the same molecule, the “Total (peptides)” value [4] was 12 and the “Unique (peptides)” value [4] was 11.

B4: SRSF2 (protein, UniProt Q01130 2-221, looked up)
Serine/arginine-rich splicing …: SYGRPPPDVEGMTSLKVDNLTYRTSPDTLRRVFEKYGRVGDVYIPRDRYTKESRGFAFVRFHDKRDAEDAMDAMDGAVLDGRELRVQMARYGRPPDSHHSRRGPPPRRYGGGGYGRRSRSPRRRRRSRSRSRSRSRSRSRSRYSRSKSRSRTRSRSRSTSKSRSARRSKSKSSSVSRSRSRSRSRSRSRSPPPVSKRESKSRSRSKSPPKSPEEEGAVSS
B4 was tested, and the “Total (total peptides)” value [1] was 20, the “Unique (unique peptides)” value [1] was 3 and the “Total (peptides)” value [5] was 2. The “Unique (peptides)” value [5] was 1, the “Total (total peptides)” value [6] was 2 and the “Unique (unique peptides)” value [6] was 1. The “Total (peptides)” value [7] was 2 and the “Unique (peptides)” value [7] was 1.

B5: SF3B3 (protein)
chain: MFLYNLTLQRATGISFAIHGNFSGTKQQEIVVSRGKILELLRPDPNTGKVHTLLTVEVFGVIRSLMAFRLTGGTKDYIVVGSDSGRIVILEYQPSKNMFEKIHQETFGKSGCRRIVPGQFLAVDPKGRAVMISAIEKQKLVYILNRDAAARLTISSPLEAHKANTLVYHVVGVDVGFENPMFACLEMDYEEADNDPTGEAAANTQQTLTFYELDLGLNHVVRKYSEPLEEHGNFLITVPGGSDGPSGVLICSENYITYKNFGDQPDIRCPIPRRRNDLDDPERGMIFVCSATHKTKSMFFFLAQTEQGDIFKITLETDEDMVTEIRLKYFDTVPVAAAMCVLKTGFLFVASEFGNHYLYQIAHLGDDDEEPEFSSAMPLEEGDTFFFQPRPLKNLVLVDELDSLSPILFCQIADLANEDTPQLYVACGRGPRSSLRVLRHGLEVSEMAVSELPGNPNAVWTVRRHIEDEFDAYIIVSFVNATLVLSIGETVEEVTDSGFLGTTPTLSCSLLGDDALVQVYPDGIRHIRADKRVNEWKTPGKKTIVKCAVNQRQVVIALTGGELVYFEMDPSGQLNEYTERKEMSADVVCMSLANVPPGEQRSRFLAVGLVDNTVRIISLDPSDCLQPLSMQALPAQPESLCIVEMGGTEKQDELGERGSIGFLYLNIGLQNGVLLRTVLDPVTGDLSDTRTRYLGSRPVKLFRVRMQGQEAVLAMSSRSWLSYSYQSRFHLTPLSYETLEFASGFASEQCPEGIVAISTNTLRILALEKLGAVFNQVAFPLQYTPRKFVIHPESNNLIIIETDHNAYTEATKAQRKQQMAEEMVEAAGEDERELAAEMAAAFLNENLPESIFGAPKAGNGQWASVIRVMNPIQGNTLDLVQLEQNEAAFSVAVCRFSNTGEDWYVLVGVAKDLILNPRSVAGGFVYTYKLVNNGEKLEFLHKTPVEEVPAAIAPFQGRVLIGVGKLLRVYDLGKKKLLRKCENKHIANYISGIQTIGHRVIVSDVQESFIWVRYKRNENQLIIFADDTYPRWVTTASLLDYDTVAGADKFGNICVVRLPPNTNDEVDEDPTGNKALWDRGLLNGASQKAEVIMNYHVGETVLSLQKTTLIPGGSESLVYTTLSGGIGILVPFTSHEDHDFFQHVEMHLRSEHPPLCGRDHLSFRSYYFPVKNVIDGDLCEQFNSMEPNKQKNVSEELDRTPPEVSKKLEDIRTRYAF
For B5, the “Total (total peptides)” value [1] was 20, the “Unique (unique peptides)” value [1] was 18 and the “Total (peptides)” value [5] was 2. For the same molecule, the “Unique (peptides)” value [5] was 2, the “Total (peptides)” value [3] was 9 and the “Unique (peptides)” value [3] was 9. For the same molecule, the “Total (peptides)” value [4] was 3 and the “Unique (peptides)” value [4] was 3.
